Test results reported in patent publication US20200230201A1 (CITY OF HOPE, published 2020).
No constants are given. Whether binding was seen depends on the method and setting. Binding seen in cells or lysates may run through a third protein. Some binding calls cover weakened binding; strength is not graded here.

By UniProt entry, the sequences of proteins in these tests, tags left out.
UniProt Q04206: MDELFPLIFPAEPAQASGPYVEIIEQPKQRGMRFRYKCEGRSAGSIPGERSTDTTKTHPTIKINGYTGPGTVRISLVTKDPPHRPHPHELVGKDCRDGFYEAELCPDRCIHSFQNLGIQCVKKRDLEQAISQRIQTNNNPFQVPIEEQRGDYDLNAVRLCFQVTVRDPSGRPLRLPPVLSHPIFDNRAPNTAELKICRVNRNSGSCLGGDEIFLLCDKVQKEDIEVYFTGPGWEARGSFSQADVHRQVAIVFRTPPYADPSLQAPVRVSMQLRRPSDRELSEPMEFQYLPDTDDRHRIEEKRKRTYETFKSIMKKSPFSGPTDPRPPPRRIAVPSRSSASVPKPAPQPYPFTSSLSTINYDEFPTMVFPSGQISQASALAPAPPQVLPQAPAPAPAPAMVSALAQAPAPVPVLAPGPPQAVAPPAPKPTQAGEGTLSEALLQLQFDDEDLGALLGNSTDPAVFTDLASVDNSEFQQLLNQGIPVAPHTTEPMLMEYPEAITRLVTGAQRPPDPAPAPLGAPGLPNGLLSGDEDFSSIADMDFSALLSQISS

What was measured:
RELA (wild type) [1] = target: RELA (wild type) (UniProt Q04206); assay: Co-IP of RELA, western blot for TWIST1, transfected HEK-293 cells
RELA (wild type) [2] = target: RELA (wild type) (UniProt Q04206); assay: Co-IP, RELA pulldown, western blot for TWIST1, transfected HEK293 cells
RELA (wild type) [3] = target: RELA (wild type) (UniProt Q04206); assay: Co-IP (FIG. 2B legend)

| binding (RELA (wild type) [1]) | binding (RELA (wild type) [2]) | binding (RELA (wild type) [3]) | Binder |
| --- | --- | --- | --- |
| binds | binds | – | TWIST1 (wild type, Myc-His tagged) (other, not shown: small tags and cut ends) MMQDVSSSPVSPADDSLSNSEEEPDRQQPPSGKRGGRKRRSSRRSAGGGAGPGGAAGGGVGGGDEPGSPAQGKRGKKSAGCGGGGGAGGGGGSSSGGGSPQSYEELQTQRVMANVRERQRTQSLNEAFAALRKIIPTLPSDKLSKIQTLKLAARYIDFLYQVLQSDELDSKMASCSYVAHERLSYAFSVWRMEGAWSMSASH |
| – | binds | binds | TWIST1 R191A (other, not shown: small tags and cut ends) MMQDVSSSPVSPADDSLSNSEEEPDRQQPPSGKRGGRKRRSSRRSAGGGAGPGGAAGGGVGGGDEPGSPAQGKRGKKSAGCGGGGGAGGGGGSSSGGGSPQSYEELQTQRVMANVRERQRTQSLNEAFAALRKIIPTLPSDKLSKIQTLKLAARYIDFLYQVLQSDELDSKMASCSYVAHERLSYAFSVWAMEGAWSMSASH |
| – | binds | binds | TWIST1 W190A (other, not shown: small tags and cut ends) MMQDVSSSPVSPADDSLSNSEEEPDRQQPPSGKRGGRKRRSSRRSAGGGAGPGGAAGGGVGGGDEPGSPAQGKRGKKSAGCGGGGGAGGGGGSSSGGGSPQSYEELQTQRVMANVRERQRTQSLNEAFAALRKIIPTLPSDKLSKIQTLKLAARYIDFLYQVLQSDELDSKMASCSYVAHERLSYAFSVARMEGAWSMSASH |
| – | binds | binds | TWIST1 E193A (other, not shown: small tags and cut ends) MMQDVSSSPVSPADDSLSNSEEEPDRQQPPSGKRGGRKRRSSRRSAGGGAGPGGAAGGGVGGGDEPGSPAQGKRGKKSAGCGGGGGAGGGGGSSSGGGSPQSYEELQTQRVMANVRERQRTQSLNEAFAALRKIIPTLPSDKLSKIQTLKLAARYIDFLYQVLQSDELDSKMASCSYVAHERLSYAFSVWRMAGAWSMSASH |
